Measurements taken from PubChem BioAssay AID2685 (National Center for Advancing Translational Sciences (NCATS), 2010).
Some of the results follow. These are further read-outs of the screen, such as a control signal, another cell line or another target. No call is given for them. Compounds called inactive in the main read-out are mostly missing here. Potencies come from curve fits of mixed quality, noted in brackets.

Assay: qHTS Assay for Lipid Storage Modulators in Drosophila S3 Cells;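 for cell number change: cells counted by Cell Tracker Red CMTPX staining in the red channel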
Settings: BODIPY lipid droplet fluorescence, 18-24 h; for cell number change: measured here: cell count max response, cells fed with added oleic acid
How it was run: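 Drosophila S3 cells got compounds at several concentrations plus oleic acid (400 uM solution). Laser-scanning cytometry with 488 nm excitation read lipid droplets at 500-530 nm and cells at 575-640 nm. Percent activity was relative to 20 uM Triacsin C.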

[1] = measured here: cell number channel AC50, cells fed with added oleic acid
[2] = measured here: lipid fluorescence (Fed channel) AC50, cells fed with added oleic acid

Row | Compound | cell number change | AC50 [1] | AC50 [2]
1 | COc1ccccc1N(Cc1ccccc1)S(=O)(=O)c1cccc(C(=O)O)c1 | 16.7% | 6.51 µM [rising, single point] | 0.731 µM [falling, full curve, poor fit]
2 | CCOc1ccc2nc(NCCNC(=O)c3cc(OC)c(OC)c(OC)c3)c(C#N)cc2c1 | 16.1% | – | 0.0206 µM [rising, full curve, poor fit]
3 | Cc1nnc(SCC(=O)NCCOc2ccc(Cl)cc2)n1-c1ccccc1 | -22.8% | – | 16.4 µM [rising, single point]
4 | CCN1CCN(C(=O)c2ccc(-c3nc4ccccc4s3)s2)CC1 | 50.1% | 20.6 µM [rising, single point] | –
5 | CC(Sc1ccccc1)C(=O)NN=C1CCN(C)CC1 (centres undefined) | -18.7% | – | 29.1 µM [rising, single point]
6 | Cc1cc(C(=O)CN2C(=O)C(=O)N(C3CCCC3)C2=O)c(C)n1-c1ccc(F)cc1 | -8.14% | 0.103 µM [rising, full curve, poor fit] | 0.651 µM [rising, single point]
7 | C/C(=N\NC(=O)COc1ccc(C)cc1C(C)C)c1ccc(-n2ccnc2)cc1 | -29.4% | – | –
8 | COc1ccccc1-n1nnnc1SC(C)C(=O)NC1CCCC1 (centres undefined) | 73.1% | 18.4 µM [rising, single point] | –
9 | Cc1ccc(-c2nn(-c3ccccc3)cc2C(=O)N2CCOCC2)cc1C | -1.85% | 0.112 µM [falling, full curve, poor fit] | 0.112 µM [falling, full curve, poor fit]
10 | CCN(CC(=O)Nc1ccc2c(c1)OC(F)(F)O2)Cc1nc2ccccc2c(=O)[nH]1 | 10.7% | – | 4.61 µM [rising, single point]
11 | COc1cc(/C=N/NC(=O)c2ccc(NC(=O)C3CCCCC3)cc2)ccc1O | -51.9% | 18.4 µM [falling, partial curve] | 18.4 µM [falling, partial curve]
12 | CC(/C=C/c1ccccc1)=N\NC(=O)CNC(=O)c1ccccc1Cl | 31.9% | 0.651 µM [rising, full curve, poor fit] | 1.03 µM [rising, full curve]
13 | O=C(Nc1ccccc1-c1ccccc1)c1ccc(Cl)c([N+](=O)[O-])c1 | -0.746% | – | 0.00411 µM [falling, full curve, poor fit]
14 | COC(=O)c1ccc(Cn2cnc3c(cnn3-c3ccc(F)cc3)c2=O)o1 | 3.28% | – | 6.51 µM [falling, single point]
15 | Cc1[nH]c2ccccc2c1C(=O)C(=O)N1CCN(C)CC1 | -64.9% | 29.1 µM [falling, single point] | –

Limited to cell number change (2 entries from above):

| Row | Compound | cell number change |
| --- | --- | --- |
| 3 | Cc1nnc(SCC(=O)NCCOc2ccc(Cl)cc2)n1-c1ccccc1 | -22.8% |
| 4 | CCN1CCN(C(=O)c2ccc(-c3nc4ccccc4s3)s2)CC1 | 50.1% |
